{"source": "patent US12606595B2", "about": "“Regentide-041 and composition comprising Regentide-041 for improving skin condition” (NINEBIOPHARM CO., LTD., priority 2020, dated 2026)", "key": {"[1]": {"test_system": "HaCaT cells, epidermal keratinocytes", "test": "Wound recovery effect of epidermal keratinocytes (insert migration assay)", "assay_type": "cell-based, human", "conditions": "1 and 2.5 μM, images after 16 and 40 hours"}, "[2]": {"test_system": "HaCaT cells, epidermal keratinocytes", "test": "Epidermal keratinocyte growth promoting efficacy (cell number)", "assay_type": "cell-based, human"}, "CCD-986sk, dermal cells": {"test_system": "CCD-986sk, dermal cells", "test": "Wound recovery promoting effect of fibroblasts (insert migration assay)", "assay_type": "cell-based, human", "conditions": "1 and 2.5 μM, images after 16 and 40 hours"}, "Neutrophil Elastase": {"biological_target": "T1, Neutrophil Elastase (Homo sapiens, UniProt P08246)", "T1 construct": "purchased Enzo Life Science BML-AK497-001", "T1 sequence (P08246 30-267)": "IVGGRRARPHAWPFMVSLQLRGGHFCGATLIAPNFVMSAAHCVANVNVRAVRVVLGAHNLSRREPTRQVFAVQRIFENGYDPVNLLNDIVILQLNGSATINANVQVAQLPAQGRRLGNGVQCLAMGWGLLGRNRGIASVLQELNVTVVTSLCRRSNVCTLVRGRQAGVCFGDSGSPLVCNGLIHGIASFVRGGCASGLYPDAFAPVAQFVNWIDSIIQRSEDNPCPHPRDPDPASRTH", "test": "Elastase activity inhibitory ability, Neutrophil Elastase colorimetric method", "assay_type": "biochemical", "conditions": "0.1, 1, 10, 50, 100 and 150 μM", "procedure": "In order to confirm the elastase activity inhibitory ability of Regentide-041, it was measured using the Neutrophil Elastase colorimetric method (BML-AK497-001, Enzo Life Science, Pennsylvania, USA). Specifically, after an assay buffer and D.W. were diluted at 1:1, an elastase reagent and a substrate reagent were diluted to have final concentrations of 2.2 μU/μl and 100 μM, respectively. In addition, Regentide-041 was diluted to have final concentrations of 0.1, 1, 10, 50, 100, and 150 μM, respectively. A working solution was prepared by mixing the assay buffer, elastase reagent, and Regentide-041 diluent. […] of the working solution was put in each well of a 96-well plate and reacted at 37° C. for 5 minutes. Next, […] of the substrate reagent was put, and absorbance was measured for 15 minutes at absorbance 405 nm with a Microplate reader (Epoch 2 Microplate spectrophotometer. Biotek, Winooski, VT, USA)."}, "[3]": {"test_system": "CCD-986sk cells, human skin fibroblasts", "test": "Elastin biosynthesis ability (Elastin ELISA of medium)", "assay_type": "cell-based", "conditions": "24 hours"}, "[4]": {"test_system": "CCD986Sk cells, fibroblasts", "test": "Fibroblast growth promoting efficacy (cell number)", "assay_type": "cell-based, human"}}, "note": "Part of at least one peptide drawing is inferred or uncertain, most often the ends. Where a SMILES comes first, the peptide text is derived from it.", "data": [{"molecule": "CC[C@H](C)[C@H](NC(=O)CNC(=O)CNC(=O)[C@H](CCCNC(=N)N)NC(=O)[C@@H]1CCCN1C(=O)[C@@H](NC(=O)[C@@H](N)CS)[C@@H](C)CC)C(=O)N[C@@H](CS)C(=O)N[C@@H](CC(C)C)C(=O)N[C@H](C(=O)N[C@@H](C)C(=O)N[C@@H](CC(C)C)C(N)=O)C(C)C", "note": "[Regentide-041, CIPRGGICLVAL-NH2] (H-CIPRGGICLVAL-NH2)", "values": [{"measurement": "cell number and cell migration ability of epidermal keratinocytes", "setting": "[1]", "result": "increased the cell number and cell migration ability of epidermal keratinocytes"}, {"measurement": "cell growth rate higher than that of the untreated control group", "setting": "[2]; HaCaT, 500 nM, after 8 days", "result": "about 32.3%"}, {"measurement": "growth of epidermal keratinocytes (cell number)", "setting": "[2]; HaCaT, 100, 200 and 500 nM, 8 days, counted every two days", "result": "promoted the growth of epidermal keratinocytes in a concentration and time-dependent manner"}, {"measurement": "cell number and cell migration ability of fibroblasts", "setting": "CCD-986sk, dermal cells", "result": "increased the cell number and cell migration ability of fibroblasts"}, {"measurement": "elastase activity inhibitory ability (trend)", "setting": "Neutrophil Elastase", "result": "increased the elastase activity inhibitory ability in a concentration-dependent manner"}, {"measurement": "increase of amount of elastin compared to the control group", "setting": "[3]; CCD-986sk, 1 μM", "result": 32.3, "unit": "%"}, {"measurement": "elastin biosynthesis ability", "setting": "[3]; CCD-986sk, 0.1, 0.2, 0.5 and 1 μM, FBS-free medium", "result": "increased"}, {"measurement": "cell growth rate higher than that of the untreated control group", "setting": "[4]; CCD986Sk, 500 nM, after 8 days", "result": "about 21.4%"}, {"measurement": "growth of fibroblasts (cell number)", "setting": "[4]; CCD986Sk, 100, 200 and 500 nM, 8 days, counted every two days", "result": "promoted the growth of fibroblasts in a concentration and time-dependent manner"}]}]}
